PubChem BioAssay AID1159578, Peter MacCallum Cancer Centre – 2015
Here is a random part of about 18,000 deposited reagents. In the full data, about 1,030 (5.7%) got an active call. 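Inactive calls also include pools with fewer than 3300 nuclei, whose migration was not assessed.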 The raw values are shown without normalisation.

- Assay: 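siRNA pools altering how lymphatic endothelial cells close a scratch wound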 (primary screen)
- Cell system: human lymphatic endothelial cells
- Reagent: siRNA pool against human genes, 40 nM
- Timing: 48 h after transfection
- Detection: 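High-content imaging of dye-stained cells in a scratch assay measures filled wound area and nuclei per well; duplicate means given as ratio to mock and robust z-score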
- Reading the numbers: migration robust z-score: higher = faster migration into the scratch; migration relative to mock: higher = more scratch area covered than mock; nuclei per well: higher = more cells in the well
- Rule for the call: 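Pools averaging fewer than 3300 nuclei are never called; remaining pools count as changed when migration robust z lies outside -2 to 2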
- Calls: active = migration changed; inactive = no migration change, or too few cells

gene	migration robust z-score	migration class with cell-count check	migration relative to mock	nuclei per well, duplicate mean	Call
TNFRSF1A	0.99	migration z between -2 and 2; enough cells	1	5316	inactive
POMGNT2	1.06	migration z between -2 and 2; enough cells	1.16	6425	inactive
ARHGEF4	-1.89	migration z between -2 and 2; enough cells	0.4	4035	inactive
BAX	0.75	migration z between -2 and 2; enough cells	1.08	5954	inactive
TMEM107	-1.03	migration z between -2 and 2; enough cells	0.62	5960	inactive
NEXN	0.11	migration z between -2 and 2; enough cells	0.92	4286	inactive
GRIPAP1	-0.34	migration z between -2 and 2; enough cells	0.8	6358	inactive
SHPRH	0.39	migration z between -2 and 2; enough cells	0.88	6115	inactive
C10orf62	-1.43	migration z between -2 and 2; enough cells	0.52	5079	inactive
TSLIG3B	-0.75	migration z between -2 and 2; enough cells	0.69	6693	inactive
HERC4	-1.04	migration z between -2 and 2; enough cells	0.6	4752	inactive
OTULINL	-0.06	migration z between -2 and 2; enough cells	0.87	5540	inactive
TOR4A	1.2	migration z between -2 and 2; enough cells	1.19	6134	inactive
GPATCH2L	0.82	migration z between -2 and 2; enough cells	1.1	5668	inactive
PNISR	0.94	migration z between -2 and 2; enough cells	1.12	5488	inactive
COL5A3	1.01	migration z between -2 and 2; enough cells	1.15	6836	inactive
KCNMA1	0.28	migration z between -2 and 2; enough cells	0.86	4922	inactive
NRGN	1.35	migration z between -2 and 2; enough cells	1.06	6052	inactive
APOBEC4	-2.65	migration z below -2; enough cells	0.2	6582	active
CNTN2	0.29	migration z between -2 and 2; enough cells	0.96	6046	inactive
C19orf53	1.75	migration z between -2 and 2; enough cells	1.32	6259	inactive
BPIFC	0.25	migration z between -2 and 2; enough cells	0.95	5292	inactive
CHIT1	0.7	migration z between -2 and 2; enough cells	0.94	4544	inactive
ZMYM3	0.54	migration z between -2 and 2; enough cells	1.02	5166	inactive
LRRC25	0.5	migration z between -2 and 2; enough cells	1.02	5998	inactive
SLC16A6	-0.21	migration z between -2 and 2; enough cells	0.76	5719	inactive
DPP9	-2.13	migration z below -2; enough cells	0.39	3725	active
ERG28	0.57	migration z between -2 and 2; enough cells	1.04	5628	inactive
SNORC	-0.3	migration z between -2 and 2; enough cells	0.8	5154	inactive
EIF2S2	-3.6	migration z below -2; enough cells	0.11	6145	active
IRS2	-0.2	migration z between -2 and 2; enough cells	0.84	5456	inactive
NPIPA1	0.98	migration z between -2 and 2; enough cells	1.14	6216	inactive
OPRPN	3.34	migration z above 2; enough cells	1.75	6730	active
DSEL	-0.73	migration z between -2 and 2; enough cells	0.66	4965	inactive
TMEM102	-0.09	migration z between -2 and 2; enough cells	0.86	7032	inactive
TP63	-1.77	migration z between -2 and 2; enough cells	0.46	4536	inactive
CALCB	-0.83	migration z between -2 and 2; enough cells	0.64	5740	inactive
CEND1	-0.18	migration z between -2 and 2; enough cells	0.84	6398	inactive
PNLIP	0.6	migration z between -2 and 2; enough cells	0.92	6105	inactive
GZMM	-3.07	under 3300 nuclei; migration not judged	0.08	1942	inactive
TMEM8B	-0.25	migration z between -2 and 2; enough cells	0.82	4966	inactive
OTOP1	-0.12	migration z between -2 and 2; enough cells	0.86	5964	inactive
CLDN18	-0.26	migration z between -2 and 2; enough cells	0.82	5259	inactive
CSNK1A1L	-0.88	migration z between -2 and 2; enough cells	0.64	4578	inactive
BMP15	0.94	migration z between -2 and 2; enough cells	0.99	5546	inactive
ADRA2B	0.8	migration z between -2 and 2; enough cells	0.96	5936	inactive
HAVCR1	1.58	migration z between -2 and 2; enough cells	1.11	5858	inactive
ARHGEF7	-0.32	migration z between -2 and 2; enough cells	0.74	5032	inactive
NFS1	-0.57	migration z between -2 and 2; enough cells	0.7	5420	inactive
HMGN1	-3.55	under 3300 nuclei; migration not judged	0.12	2422	inactive
WBP1	-0.44	migration z between -2 and 2; enough cells	0.77	4832	inactive
H2BC4	0.35	migration z between -2 and 2; enough cells	0.98	5690	inactive
KCNJ13	-0.36	migration z between -2 and 2; enough cells	0.74	3674	inactive
SDF2	-0.68	migration z between -2 and 2; enough cells	0.71	5272	inactive
PNRC1	-0.04	migration z between -2 and 2; enough cells	0.88	4858	inactive
CGN	3.08	migration z above 2; enough cells	1.68	6452	active
FGL2	0.39	migration z between -2 and 2; enough cells	0.88	4734	inactive
RPF1	0.36	migration z between -2 and 2; enough cells	0.98	6338	inactive
NBPF14	2.5	migration z above 2; enough cells	1.54	7604	active
MYL5	-1.25	migration z between -2 and 2; enough cells	0.55	6140	inactive
SLC29A3	-2.1	migration z below -2; enough cells	0.4	4356	active
NIT2	-1.79	migration z between -2 and 2; enough cells	0.46	4069	inactive
GUCA1A	-0.73	migration z between -2 and 2; enough cells	0.66	4633	inactive
ZSCAN10	0.7	migration z between -2 and 2; enough cells	1.06	5416	inactive
PIP5K1B	-1.61	migration z between -2 and 2; enough cells	0.5	4019	inactive
GATAD2B	-0.88	migration z between -2 and 2; enough cells	0.64	3978	inactive
NALF1	0.5	migration z between -2 and 2; enough cells	1.02	5634	inactive
PDGFD	0.6	migration z between -2 and 2; enough cells	1.04	6405	inactive
GCNT4	0	migration z between -2 and 2; enough cells	0.8	5445	inactive
SLC2A8	1.19	migration z between -2 and 2; enough cells	1.03	5598	inactive
DOCK1	-0.43	migration z between -2 and 2; enough cells	0.78	5094	inactive
CADM2	-0.34	migration z between -2 and 2; enough cells	0.8	5643	inactive
TBC1D31	1.28	migration z between -2 and 2; enough cells	1.22	6190	inactive
